{"source": "PubChem BioAssay AID540256", "about": "(National Center for Advancing Translational Sciences (NCATS), 2011)", "note": "Values joined by “and” are separate entries in the source; they are usually repeats but may differ in a detail not shown here. Equal entries are not always repeated. Among all 300,000 compounds or so, about 3,700 (1.2%) were called active. This list was built around the results that the source calls inconclusive (neither active nor inactive); the mix of calls is not that of the screen. The call rests on the fitted dose curve; tested in HEK293 cells. Potencies of inconclusive entries are doubtful fits and often do not repeat. Potency means the concentration at half of the fitted maximal effect.", "data": [{"assay": "qHTS for Inhibitors of binding or entry into cells for Lassa Virus; further: nearly all actives have a fitted effect of over 50% in size", "conditions": "Lassa virus pseudotype entry inhibition, cell reporter; series mostly up to 37.9 µM", "values": [{"smiles": "Cn1ncc(Br)c1NC(=O)Nc1ccc(OC(F)(F)F)cc1", "Potency": "inconclusive: 22.4 µM [inhibitor, partial curve, poor fit]"}, {"smiles": "Cc1ccc(CN(C(=O)c2cc(=O)c3cc(Cl)c(C)cc3o2)C2CCS(=O)(=O)C2)cc1", "note": "(stereo unspecified)", "Potency": "inconclusive: 4.11 µM [activator, single point]"}, {"smiles": "CCN(CC)CCCN(Cc1cc2cc(OC)c(OC)cc2[nH]c1=O)C(=O)Nc1ccccc1", "Potency": "inactive"}, {"smiles": "O=C(CN1C(=O)c2ccccc2S1(=O)=O)Nc1ccc(S(=O)(=O)N2CCCCC2)cc1", "Potency": "inactive"}, {"smiles": "CCC1CCCCN1CCCNC(=O)c1cn(CC)c2ccc(S(=O)(=O)N3CCc4ccccc4C3)cc2c1=O", "note": "(stereo unspecified)", "Potency": "inconclusive: 35.5 µM [inhibitor, single point]"}, {"smiles": "Cc1ccc(S(=O)(=O)Cc2ccc([N+](=O)[O-])cc2)cc1", "Potency": "inactive"}, {"smiles": "CCSc1nnc(NC(=O)c2ccc3c(c2)OCO3)s1", "Potency": "inconclusive: 2.91 µM [inhibitor, full curve]"}, {"smiles": "CCOC(=O)CSc1nc2ccc(NC(=O)CSc3nnnn3Cc3ccccc3)cc2s1", "Potency": "inactive"}, {"smiles": "CCCNC(=O)COC(=O)c1n[nH]c2ccccc12", "Potency": "inactive"}, {"smiles": "CC(=O)Nc1ccc(NC(=O)c2cc([N+](=O)[O-])cc([N+](=O)[O-])c2)cc1", "Potency": "inactive"}, {"smiles": "COC(=O)c1ccccc1NC1=C/C(=N\\S(=O)(=O)c2cccs2)c2ccccc2C1=O", "Potency": "active: 4.11 µM and active: 4.47 µM"}, {"smiles": "Cc1ccc(C(=O)N2CC(=O)Nc3ccc(F)cc3C2c2ccc(F)cc2)cc1[N+](=O)[O-]", "note": "(stereo unspecified)", "Potency": "inconclusive: 35.5 µM [inhibitor, single point]"}, {"smiles": "CC(C)NC(=O)c1ccc(CSCc2ccccc2Cl)o1", "Potency": "inconclusive: 12.6 µM [inhibitor, single point]"}, {"smiles": "CC(C)(C)NS(=O)(=O)c1ccc(NC(=O)C2CC(=O)N(CCc3ccc(F)cc3)C2)cc1", "note": "(stereo unspecified)", "Potency": "inconclusive: 6.31 µM [inhibitor, single point]"}, {"smiles": "O=C1C=CC(=O)N1CCCCCCCCCCN1C(=O)C=CC1=O", "Potency": "inconclusive: 35.5 µM [inhibitor, partial curve, poor fit]"}, {"smiles": "COc1ccc(Oc2ccc(NC(=O)c3ccccc3C)cc2)cc1", "Potency": "inconclusive: 8.91 µM [inhibitor, partial curve, poor fit]"}, {"smiles": "CCc1nnc(NC(=O)c2c(C)nn(-c3ccccc3)c2Cl)s1", "Potency": "inactive"}, {"smiles": "CCC(=O)Nc1sc2c(c1C(=O)Nc1ccc(OC)cc1)CCC(C(C)(C)C)C2", "note": "(stereo unspecified)", "Potency": "inconclusive: 7.08 µM [activator, full curve, poor fit]"}, {"smiles": "O=C(NCc1ccco1)Nc1ccc2nsnc2c1", "Potency": "inconclusive: 20 µM [inhibitor, single point]"}, {"smiles": "O=C(/C=N/O)NCC1CCNCC1", "Potency": "inactive"}, {"smiles": "OCC1(Cc2ccc(Cl)cc2)CCN(Cc2ccc3nsnc3c2)CC1", "Potency": "inactive"}, {"smiles": "COc1ccc(CC(=O)O/N=C(\\N)Cc2cccc3ccccc23)cc1OC", "Potency": "inactive"}, {"smiles": "Cc1ccc(-n2ncc3c2ncn2nc(-c4ccco4)nc32)c(C)c1", "Potency": "inconclusive: 35.5 µM [inhibitor, single point]"}, {"smiles": "OC1CCCN(c2ncnc3c2nnn3Cc2c(F)cccc2Cl)C1", "note": "(stereo unspecified)", "Potency": "active: 6.31 µM"}, {"smiles": "Cc1ccc(C(=O)NCC(c2cccs2)S(=O)(=O)c2cccs2)cc1C", "note": "(stereo unspecified)", "Potency": "inactive"}, {"smiles": "Cc1ccc(CNC(=O)CSCc2ccccc2F)cc1", "Potency": "inactive"}, {"smiles": "Cc1[nH]c2ccccc2c1C(=O)C(=O)NCCC1=CCCCC1", "Potency": "inconclusive: 32.6 µM [inhibitor, partial curve, poor fit]"}, {"smiles": "Cc1c(C(=O)N(Cc2cccc(Br)c2)C2CCS(=O)(=O)C2)oc2ccc(F)cc12", "note": "(stereo unspecified)", "Potency": "inconclusive: 35.5 µM [inhibitor, single point]"}, {"smiles": "O=C(CCS(=O)(=O)Cc1ccccc1)NCC1CCCO1", "note": "(stereo unspecified)", "Potency": "inconclusive: 18.3 µM [activator, single point]"}, {"smiles": "CCN1/C(=C\\C=C2\\C(=O)N(c3ccccc3)C(=S)N2C)Sc2ccccc21", "Potency": "inconclusive: 0.562 µM [inhibitor, full curve, poor fit]"}, {"smiles": "S=C(c1ccc(-c2ccc(Cl)c(Cl)c2)o1)N1CCOCC1", "Potency": "inconclusive: 29.1 µM [inhibitor, single point]"}, {"smiles": "Cc1ccc(NC(=O)c2cccc(NC(=O)N3CCSc4ncccc43)c2)cc1Cl", "Potency": "inconclusive: 8.91 µM [activator, partial curve, poor fit]"}, {"smiles": "CCCc1cc(-c2n[nH]c(=S)n2Cc2ccccc2)cs1", "Potency": "inconclusive: 4.11 µM [inhibitor, single point]"}, {"smiles": "Cc1ccc(C)c(NC(=S)Nc2ncccc2C)c1", "Potency": "inconclusive: 12.6 µM [activator, partial curve]"}, {"smiles": "COc1cccc(C(=O)Nc2ccc(C)cc2)c1", "Potency": "inconclusive: 10.3 µM [inhibitor, single point]"}, {"smiles": "COc1ccc(N2C(=O)CC2(C#N)c2ccc(OCc3ccccc3)cc2)cc1", "note": "(stereo unspecified)", "Potency": "inconclusive: 29.1 µM [inhibitor, single point]"}, {"smiles": "Clc1ccc2nc(C3CCN(Cc4nnnn4C4CCCCC4)CC3)[nH]c2c1", "Potency": "inconclusive: 14.6 µM [inhibitor, partial curve, poor fit]"}, {"smiles": "Cc1oc(-c2ccccc2F)nc1CS(=O)(=O)CC(=O)N1CCN(c2cccc(C(F)(F)F)c2)CC1", "Potency": "inactive"}, {"smiles": "N#Cc1ccc(C(=O)Nc2ccc(Cl)c(-c3nc4cc(Cl)ccc4o3)c2)c(F)c1", "Potency": "inactive"}, {"smiles": "CN(C(=O)CCCOc1ccc2[nH]c(=O)ccc2c1)C1CCCCC1", "Potency": "inconclusive: 4.11 µM [inhibitor, full curve, poor fit]"}, {"smiles": "CCn1c(NN=O)nc2ccccc21", "Potency": "inconclusive: 11.2 µM [inhibitor, partial curve, poor fit]"}, {"smiles": "CCCCNC(=O)NNC(=O)COc1cccc(C)c1C", "Potency": "inconclusive: 31.6 µM [activator, single point]"}, {"smiles": "COC(=O)C(C)Sc1nc(NCc2ccccc2)nc(N(C)C)n1", "note": "(stereo unspecified)", "Potency": "inactive"}, {"smiles": "O=C(NCCN1CCOCC1)C(=O)NCC1OCCN1S(=O)(=O)c1ccccc1", "note": "(stereo unspecified)", "Potency": "inconclusive: 14.1 µM [activator, single point]"}, {"smiles": "O=C1C2CC=C(Cl)CC2C(=O)N1CCc1ccccc1", "note": "(stereo unspecified)", "Potency": "inactive"}, {"smiles": "CC(C)Cn1nc(C(=O)Nc2cccc(C(=O)NC3CC3)c2)c2ccccc2c1=O", "Potency": "inconclusive: 31.6 µM [inhibitor, single point]"}, {"smiles": "CCCCOc1ccc(C(=O)NCCCC(=O)N2CCCCC2)cc1", "Potency": "inconclusive: 29.1 µM [inhibitor, single point]"}, {"smiles": "O=C(NCc1ccc2c(c1)CCN2C(=O)c1ccncc1)c1cccc(Cl)c1", "Potency": "inactive"}, {"smiles": "c1ccc(-c2nc3ccccc3s2)nc1", "Potency": "inconclusive: 29.1 µM [inhibitor, single point]"}, {"smiles": "COc1cccc(CNC(=O)CSc2ncc(S(=O)(=O)c3ccc(C)c(Cl)c3)c(=O)[nH]2)c1", "Potency": "inconclusive: 35.5 µM [activator, partial curve, poor fit]"}, {"smiles": "Cc1nc2c(c(C)nn2-c2ccccc2)c(C)c1CCC(=O)Nc1ccc(CN2CCCC2)cc1", "Potency": "inconclusive: 12.6 µM [activator, partial curve, poor fit]"}, {"smiles": "CCS(=O)(=O)c1ncc(Cl)c(C(=O)N(Cc2ccccc2)Cc2ccco2)n1", "Potency": "inconclusive: 35.5 µM [inhibitor, single point]"}, {"smiles": "Cc1ccc(OCCNC(=O)c2cccc(S(=O)(=O)NCc3ccccc3)c2)cc1", "Potency": "inconclusive: 5.01 µM [inhibitor, full curve]"}, {"smiles": "Clc1cccc(Cl)c1C1N2CCCN12", "note": "(stereo unspecified)", "Potency": "inactive"}, {"smiles": "COc1ccccc1-c1noc(-c2ccc(NCCc3ccccc3)c([N+](=O)[O-])c2)n1", "Potency": "inactive"}, {"smiles": "CCOc1cc(C(=O)Nc2cc(C)ccn2)cc(OCC)c1OCC", "Potency": "inconclusive: 29.1 µM [inhibitor, single point]"}, {"smiles": "O=C(NC1CCCCC1)c1ccccc1NC(=S)NC(=O)C1CCC1", "Potency": "inactive"}, {"smiles": "Cc1ccccc1N1C(N)=NC(N)=NC1(C)C", "Potency": "inactive"}, {"smiles": "COc1cccc(S(=O)(=O)NCc2ccc(C(=O)Nc3cccc(Cl)c3)cc2)c1", "Potency": "inconclusive: 15.8 µM [inhibitor, single point]"}, {"smiles": "Cc1c([N+](=O)[O-])ccc(S(=O)(=O)N2CCC(C(N)=O)CC2)c1C", "Potency": "inconclusive: 23.1 µM [activator, partial curve, poor fit]"}, {"smiles": "Cc1cc(C)c(NC(=O)COC(=O)Cc2cccs2)c(C)c1", "Potency": "inconclusive: 14.1 µM [activator, partial curve, poor fit]"}, {"smiles": "COc1ccc(N2CCN(C(=O)c3ccc(CS(=O)Cc4ccc(C)cc4)o3)CC2)cc1", "note": "(stereo unspecified)", "Potency": "inactive"}, {"smiles": "NC(=O)c1ccc(Nc2ccc3nonc3c2[N+](=O)[O-])cc1", "Potency": "inconclusive: 5.62 µM [inhibitor, single point]"}, {"smiles": "COC(=O)c1ccc(CSc2nc3ccc(S(=O)(=O)N4CCOCC4)cc3[nH]2)cc1", "Potency": "inactive"}, {"smiles": "Cc1cc(C)c(C#N)c(SCC(=O)Nc2ccccc2C#N)n1", "Potency": "inactive"}, {"smiles": "COc1ccccc1-c1cn(S(=O)(=O)c2ccc(C)cc2)nc1N", "Potency": "inconclusive: 35.5 µM [inhibitor, single point]"}, {"smiles": "COC(=O)C(=C/C(C)=C/c1cccnc1)C(=O)OC", "Potency": "inactive"}, {"smiles": "Fc1ccc(C2c3[nH]c4ccccc4c3CCN2Cc2cccn2-c2ncccn2)cc1", "note": "(stereo unspecified)", "Potency": "inconclusive: 7.08 µM [inhibitor, partial curve, poor fit]"}, {"smiles": "Cc1ccc(CNc2ncnc3c2cnn3C2CCCCO2)cc1", "note": "(stereo unspecified)", "Potency": "inactive"}, {"smiles": "CCN1C(=O)NC(c2ccc(Br)cc2)C(C(C)=O)=C1C", "note": "(stereo unspecified)", "Potency": "inconclusive: 0.944 µM [inhibitor, single point]"}, {"smiles": "COc1ccc(C(=O)N2CCNC(=O)C2CC(=O)Nc2cccc(Cl)c2Cl)cc1", "note": "(stereo unspecified)", "Potency": "inconclusive: 1.26 µM [inhibitor, single point]"}]}]}
